Measurements published in patent publication US20250171534A1.
No constants are given. Whether binding was seen depends on the method and setting. Some results given as binding are weak or reduced against the parent protein; the word gives no strength.

Protein sequences, listed by entry. Tags and fused reporters are not part of them. Residues count along the entry.
UniProt O75022, residues 24-631: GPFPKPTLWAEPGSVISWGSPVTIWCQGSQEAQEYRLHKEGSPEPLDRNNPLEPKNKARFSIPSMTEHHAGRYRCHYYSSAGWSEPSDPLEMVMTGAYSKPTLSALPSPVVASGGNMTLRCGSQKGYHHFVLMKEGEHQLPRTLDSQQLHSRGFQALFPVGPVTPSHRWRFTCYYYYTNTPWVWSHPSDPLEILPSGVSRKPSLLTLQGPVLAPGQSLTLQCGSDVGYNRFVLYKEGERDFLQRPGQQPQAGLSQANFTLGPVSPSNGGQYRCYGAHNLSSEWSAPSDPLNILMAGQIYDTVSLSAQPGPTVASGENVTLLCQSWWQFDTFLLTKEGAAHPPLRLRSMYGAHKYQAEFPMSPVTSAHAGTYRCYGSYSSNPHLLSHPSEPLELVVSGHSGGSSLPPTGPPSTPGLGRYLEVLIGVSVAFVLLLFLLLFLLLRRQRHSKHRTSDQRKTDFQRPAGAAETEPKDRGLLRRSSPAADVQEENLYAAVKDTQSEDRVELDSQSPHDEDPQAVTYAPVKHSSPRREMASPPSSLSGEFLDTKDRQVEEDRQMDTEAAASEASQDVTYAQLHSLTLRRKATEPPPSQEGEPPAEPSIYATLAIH
UniProt O75019, residues 17-489: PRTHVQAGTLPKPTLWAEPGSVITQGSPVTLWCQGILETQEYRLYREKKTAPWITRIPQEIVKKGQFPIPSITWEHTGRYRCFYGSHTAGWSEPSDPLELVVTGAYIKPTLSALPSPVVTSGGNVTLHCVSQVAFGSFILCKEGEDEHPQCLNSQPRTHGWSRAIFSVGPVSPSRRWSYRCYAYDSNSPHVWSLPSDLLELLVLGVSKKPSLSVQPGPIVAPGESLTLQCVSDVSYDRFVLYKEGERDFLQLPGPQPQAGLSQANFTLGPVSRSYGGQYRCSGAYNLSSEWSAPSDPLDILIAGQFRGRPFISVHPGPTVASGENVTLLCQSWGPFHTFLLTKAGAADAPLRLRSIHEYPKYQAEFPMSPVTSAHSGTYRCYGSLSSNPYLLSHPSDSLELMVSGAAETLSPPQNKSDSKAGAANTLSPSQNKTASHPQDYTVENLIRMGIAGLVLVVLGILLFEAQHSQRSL
UniProt Q6PI73, residues 24-481: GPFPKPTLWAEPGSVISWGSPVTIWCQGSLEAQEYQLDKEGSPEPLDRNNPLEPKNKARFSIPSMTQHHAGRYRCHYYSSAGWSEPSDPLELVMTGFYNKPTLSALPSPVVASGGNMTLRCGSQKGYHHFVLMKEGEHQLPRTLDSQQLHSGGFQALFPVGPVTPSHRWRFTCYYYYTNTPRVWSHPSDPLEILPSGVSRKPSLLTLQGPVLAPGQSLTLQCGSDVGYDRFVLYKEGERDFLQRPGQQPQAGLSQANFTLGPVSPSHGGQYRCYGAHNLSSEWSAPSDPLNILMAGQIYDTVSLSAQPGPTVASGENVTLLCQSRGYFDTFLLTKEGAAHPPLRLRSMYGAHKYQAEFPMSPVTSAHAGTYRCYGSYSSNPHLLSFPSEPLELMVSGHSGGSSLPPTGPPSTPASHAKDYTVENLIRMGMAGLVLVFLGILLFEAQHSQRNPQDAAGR

How the values were obtained:
[1] = molecular target: LILRB3 expressed on cells (human) (UniProt O75022); assay: flow cytometry on CHO-LILRB3 cells
[2] = molecular target: LILRA1 expressed on cells (human) (UniProt O75019); assay: flow cytometry on CHO-LILRA1 cells
[3] = molecular target: LILRA6 expressed on cells (human) (UniProt Q6PI73); assay: flow cytometry on CHO-LILRA6 cells
[4] = molecular target: LILRA1 expressed on cells (human) (UniProt O75019); assay: flow cytometry on transiently transfected 293T cells, 5 µg/mL antibody
[5] = molecular target: LILRA6 expressed on cells (human) (UniProt Q6PI73); assay: as above
[6] = molecular target: LILRB3 expressed on cells (human) (UniProt O75022); assay: as above
[7] = molecular target: LILRB3 expressed on cells (human) (UniProt O75022); assay: flow cytometry on CHO-LILRB3 cells, titrated antibody, APC anti-hFc, gMFI
[8] = molecular target: LILRB3 expressed on cells (human) (UniProt O75022); assay: flow cytometry on CHO-LILRB3 cells (CHO-RB3), titrated antibody, labelled anti-human Fc, gMFI
[9] = molecular target: LILRA1 expressed on cells (human) (UniProt O75019); assay: flow cytometry on CHO-LILRA1 cells (CHO-RA1), titrated antibody, labelled anti-human Fc, gMFI
[10] = molecular target: LILRA6 expressed on cells (human) (UniProt Q6PI73); assay: flow cytometry on CHO-LILRA6 cells (CHO-RA6), titrated antibody, labelled anti-human Fc, gMFI
[11] = molecular target: LILRB3 expressed on cells (human) (UniProt O75022); assay: flow cytometry on 293T cells transiently expressing LILRB3, antibody 5 µg/mL, APC anti-human Fc; gMFI as fold to IgG staining
[12] = molecular target: LILRA1 expressed on cells (human) (UniProt O75019); assay: flow cytometry on 293T cells transiently expressing LILRA1, antibody 5 µg/mL, APC anti-human Fc; gMFI as fold to IgG staining
[13] = molecular target: LILRA6 expressed on cells (human) (UniProt Q6PI73); assay: flow cytometry on 293T cells transiently expressing LILRA6, antibody 5 µg/mL, APC anti-human Fc; gMFI as fold to IgG staining

binding [1]: binds
binding [2]: binds
binding [3]: binds
binding [4]: binds
binding [5]: binds
binding [6]: binds
binding [7]: binds
binding [8]: binds
binding [9]: binds
binding [10]: binds
binding [11]: binds
binding [12]: binds
binding [13]: binds
B1: D2M002-002 (antibody, V domains shown)
VH: EVQLQQSGPELVKPGASVKMSCKASGYTFTRYVMHWVKQKPGQGLEWIGYINPNNDGTKYNEKFKGKVTLTSDKSSSTAYMELSSLTSEDSAVYYCARGDLEILPYYDHARNAMDYWGQGTSVTVSS
VL: DVQMIQSPASLSASVGETVTITCRASENIYSYLAWYQQKQGKSPQLLVYNAKTLAEGVPSRFSGSGSGTQFSLKINSLQPEDFGSYYCQHFWSTPPTFGGGTKLEIK
